Laboratory results published in publication PMC6001375, “CLERK is a novel receptor kinase required for sensing of root-active CLE peptides in Arabidopsis” (Development (Cambridge, England), 2018).
These are yes or no findings as the source states them, for the method shown.

What was measured:
[1] = molecular target: T1, CLE-… RECEPTOR KINASE (CLERK) ectodomain (Arabidopsis thaliana) (UniProt Q0WVM4); test: condition: 400 µM CLE26 titrated into 30 µM CLERK-ECD; ITC; Nano ITC, 25°C, 20 mM citrate (pH 5.0), 150 mM NaCl; peptide in the syringe, ectodomain in the cell: 400 µM CLE26 or CLE45 into 30 µM CLERK-ECD; 80 µM CLE9 into 13.8 µM BAM1-ECD; both purified
T1 sequence: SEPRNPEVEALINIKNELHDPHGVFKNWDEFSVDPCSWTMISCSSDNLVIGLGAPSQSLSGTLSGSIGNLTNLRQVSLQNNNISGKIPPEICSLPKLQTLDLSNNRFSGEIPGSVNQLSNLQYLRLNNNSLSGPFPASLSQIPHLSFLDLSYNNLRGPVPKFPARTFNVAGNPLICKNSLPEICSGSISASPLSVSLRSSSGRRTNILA

[2] = molecular target: T2, BARELY ANY MERISTEM 1 (BAM1) ectodomain (Arabidopsis thaliana) (UniProt O49545); test: condition: 100 µg NIK3-ECD, equimolar BAM1-ECD, with 50 µM CLE9; SEC; analytical gel filtration, Superdex 200 Increase 10/300 GL, 20 mM citrate (pH 5.0), 150 mM NaCl; 100 µg of each NIK-ECD, CLERK-ECD or At5G63710-ECD mixed with equimolar BAM1-ECD, BAM3-ECD or PXY-ECD and 50 µM CLE9, CLE45 or CLE41 peptide, respectively; fractions on Coomassie-stained gels; both purified
T2 sequence: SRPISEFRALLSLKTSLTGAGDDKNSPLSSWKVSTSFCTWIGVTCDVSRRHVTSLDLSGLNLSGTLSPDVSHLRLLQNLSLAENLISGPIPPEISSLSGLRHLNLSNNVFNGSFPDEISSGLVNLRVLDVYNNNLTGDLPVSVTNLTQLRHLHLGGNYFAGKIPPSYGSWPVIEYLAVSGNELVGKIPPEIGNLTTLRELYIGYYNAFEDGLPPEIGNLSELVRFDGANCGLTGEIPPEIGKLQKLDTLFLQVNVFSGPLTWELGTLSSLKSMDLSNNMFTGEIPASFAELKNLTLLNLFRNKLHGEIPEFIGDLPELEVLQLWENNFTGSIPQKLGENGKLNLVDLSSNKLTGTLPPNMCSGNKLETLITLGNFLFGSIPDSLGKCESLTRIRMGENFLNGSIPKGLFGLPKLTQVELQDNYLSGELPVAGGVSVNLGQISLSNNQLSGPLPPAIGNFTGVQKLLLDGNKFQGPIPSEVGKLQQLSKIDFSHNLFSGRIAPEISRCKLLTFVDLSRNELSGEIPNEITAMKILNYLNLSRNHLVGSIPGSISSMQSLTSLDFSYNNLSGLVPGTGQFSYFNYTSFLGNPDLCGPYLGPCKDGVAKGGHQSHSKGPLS

[3] = molecular target: T3, PHLOEM … WITH XYLEM (PXY) ectodomain (Arabidopsis thaliana) (UniProt Q9FII5); test: condition: 100 µg NIK3-ECD, equimolar PXY-ECD, with 50 µM CLE41; SEC; analytical gel filtration, Superdex 200 Increase 10/300 GL, 20 mM citrate (pH 5.0), 150 mM NaCl; 100 µg of each NIK-ECD, CLERK-ECD or At5G63710-ECD mixed with equimolar BAM1-ECD, BAM3-ECD or PXY-ECD and 50 µM CLE9, CLE45 or CLE41 peptide, respectively; fractions on Coomassie-stained gels; both purified
T3 sequence: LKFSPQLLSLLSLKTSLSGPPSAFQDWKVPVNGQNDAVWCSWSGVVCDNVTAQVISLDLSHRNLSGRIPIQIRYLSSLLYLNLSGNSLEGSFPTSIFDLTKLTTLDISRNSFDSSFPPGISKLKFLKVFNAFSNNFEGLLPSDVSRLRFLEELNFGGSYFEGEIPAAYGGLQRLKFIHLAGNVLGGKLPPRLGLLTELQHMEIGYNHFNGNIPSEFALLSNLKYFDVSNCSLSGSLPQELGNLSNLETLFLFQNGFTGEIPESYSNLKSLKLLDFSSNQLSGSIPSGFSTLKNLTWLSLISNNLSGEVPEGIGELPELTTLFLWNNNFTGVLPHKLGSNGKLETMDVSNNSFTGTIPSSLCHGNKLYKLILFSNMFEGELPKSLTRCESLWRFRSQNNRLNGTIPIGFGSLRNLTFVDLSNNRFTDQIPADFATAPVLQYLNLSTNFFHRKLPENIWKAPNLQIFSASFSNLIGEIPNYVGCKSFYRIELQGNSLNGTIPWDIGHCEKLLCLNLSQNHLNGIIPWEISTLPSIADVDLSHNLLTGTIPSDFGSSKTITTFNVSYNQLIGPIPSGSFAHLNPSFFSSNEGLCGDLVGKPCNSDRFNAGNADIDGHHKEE

[4] = molecular target: T4, BARELY ANY MERISTEM 3 (BAM3) ectodomain (Arabidopsis thaliana) (UniProt O65440); test: condition: 100 µg NIK3-ECD, equimolar BAM3-ECD, with 50 µM CLE45; SEC; analytical gel filtration, Superdex 200 Increase 10/300 GL, 20 mM citrate (pH 5.0), 150 mM NaCl; 100 µg of each NIK-ECD, CLERK-ECD or At5G63710-ECD mixed with equimolar BAM1-ECD, BAM3-ECD or PXY-ECD and 50 µM CLE9, CLE45 or CLE41 peptide, respectively; fractions on Coomassie-stained gels; both purified
T4 sequence: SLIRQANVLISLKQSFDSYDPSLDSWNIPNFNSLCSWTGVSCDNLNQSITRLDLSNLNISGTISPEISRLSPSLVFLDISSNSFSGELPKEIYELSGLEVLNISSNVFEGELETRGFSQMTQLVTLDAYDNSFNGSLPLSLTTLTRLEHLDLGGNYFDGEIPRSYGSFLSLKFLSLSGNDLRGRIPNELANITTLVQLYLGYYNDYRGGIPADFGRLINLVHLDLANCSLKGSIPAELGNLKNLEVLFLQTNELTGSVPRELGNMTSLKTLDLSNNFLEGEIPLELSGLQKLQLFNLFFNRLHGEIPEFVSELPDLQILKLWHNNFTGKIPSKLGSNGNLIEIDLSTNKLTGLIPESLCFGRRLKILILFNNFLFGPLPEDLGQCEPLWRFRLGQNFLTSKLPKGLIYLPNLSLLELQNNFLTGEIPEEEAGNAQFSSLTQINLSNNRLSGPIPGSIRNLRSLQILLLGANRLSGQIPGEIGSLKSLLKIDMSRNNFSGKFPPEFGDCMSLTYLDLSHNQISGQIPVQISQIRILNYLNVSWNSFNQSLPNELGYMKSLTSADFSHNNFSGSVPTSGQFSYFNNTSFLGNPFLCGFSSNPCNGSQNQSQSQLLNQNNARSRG

[5] = molecular target: T2, BARELY ANY MERISTEM 1 (BAM1) ectodomain (Arabidopsis thaliana); test: condition: 100 µg At5G63710-ECD, equimolar BAM1-ECD, with 50 µM CLE9; SEC; analytical gel filtration, Superdex 200 Increase 10/300 GL, 20 mM citrate (pH 5.0), 150 mM NaCl; 100 µg of each NIK-ECD, CLERK-ECD or At5G63710-ECD mixed with equimolar BAM1-ECD, BAM3-ECD or PXY-ECD and 50 µM CLE9, CLE45 or CLE41 peptide, respectively; fractions on Coomassie-stained gels; both purified
[6] = molecular target: T3, PHLOEM … WITH XYLEM (PXY) ectodomain (Arabidopsis thaliana); test: condition: 100 µg At5G63710-ECD, equimolar PXY-ECD, with 50 µM CLE41; SEC; analytical gel filtration, Superdex 200 Increase 10/300 GL, 20 mM citrate (pH 5.0), 150 mM NaCl; 100 µg of each NIK-ECD, CLERK-ECD or At5G63710-ECD mixed with equimolar BAM1-ECD, BAM3-ECD or PXY-ECD and 50 µM CLE9, CLE45 or CLE41 peptide, respectively; fractions on Coomassie-stained gels; both purified
[7] = molecular target: T4, BARELY ANY MERISTEM 3 (BAM3) ectodomain (Arabidopsis thaliana); test: condition: 100 µg At5G63710-ECD, equimolar BAM3-ECD, with 50 µM CLE45; SEC; analytical gel filtration, Superdex 200 Increase 10/300 GL, 20 mM citrate (pH 5.0), 150 mM NaCl; 100 µg of each NIK-ECD, CLERK-ECD or At5G63710-ECD mixed with equimolar BAM1-ECD, BAM3-ECD or PXY-ECD and 50 µM CLE9, CLE45 or CLE41 peptide, respectively; fractions on Coomassie-stained gels; both purified
[8] = molecular target: T1, CLE-… RECEPTOR KINASE (CLERK) ectodomain (Arabidopsis thaliana); test: condition: 400 µM CLE45 titrated into 30 µM CLERK-ECD; ITC; Nano ITC, 25°C, 20 mM citrate (pH 5.0), 150 mM NaCl; peptide in the syringe, ectodomain in the cell: 400 µM CLE26 or CLE45 into 30 µM CLERK-ECD; 80 µM CLE9 into 13.8 µM BAM1-ECD; both purified
[9] = molecular target: T2, BARELY ANY MERISTEM 1 (BAM1) ectodomain (Arabidopsis thaliana); test: condition: 100 µg CLERK-ECD, equimolar BAM1-ECD, with 50 µM CLE9; SEC; analytical gel filtration, Superdex 200 Increase 10/300 GL, 20 mM citrate (pH 5.0), 150 mM NaCl; 100 µg of each NIK-ECD, CLERK-ECD or At5G63710-ECD mixed with equimolar BAM1-ECD, BAM3-ECD or PXY-ECD and 50 µM CLE9, CLE45 or CLE41 peptide, respectively; fractions on Coomassie-stained gels; both purified
[10] = molecular target: T3, PHLOEM … WITH XYLEM (PXY) ectodomain (Arabidopsis thaliana); test: condition: 100 µg CLERK-ECD, equimolar PXY-ECD, with 50 µM CLE41; SEC; analytical gel filtration, Superdex 200 Increase 10/300 GL, 20 mM citrate (pH 5.0), 150 mM NaCl; 100 µg of each NIK-ECD, CLERK-ECD or At5G63710-ECD mixed with equimolar BAM1-ECD, BAM3-ECD or PXY-ECD and 50 µM CLE9, CLE45 or CLE41 peptide, respectively; fractions on Coomassie-stained gels; both purified
[11] = molecular target: T4, BARELY ANY MERISTEM 3 (BAM3) ectodomain (Arabidopsis thaliana); test: condition: 100 µg CLERK-ECD, equimolar BAM3-ECD, with 50 µM CLE45; SEC; analytical gel filtration, Superdex 200 Increase 10/300 GL, 20 mM citrate (pH 5.0), 150 mM NaCl; 100 µg of each NIK-ECD, CLERK-ECD or At5G63710-ECD mixed with equimolar BAM1-ECD, BAM3-ECD or PXY-ECD and 50 µM CLE9, CLE45 or CLE41 peptide, respectively; fractions on Coomassie-stained gels; both purified

For RKVPRGPDPIHN [CLE26 peptide], the binding [1] was “no binding”.

B1: NSP-… KINASE 3 (NIK3) ectodomain (domain or fragment, UniProt Q93ZS4 26-238)
chain: TLSPTGVNYEVTALVAVKNELNDPYKVLENWDVNSVDPCSWRMVSCTDGYVSSLDLPSQSLSGTLSPRIGNLTYLQSVVLQNNAITGPIPETIGRLEKLQSLDLSNNSFTGEIPASLGELKNLNYLRLNNNSLIGTCPESLSKIEGLTLVDISYNNLSGSLPKVSARTFKVIGNALICGPKAVSNCSAVPEPLTLPQDGPDESGTRTNGHHVA
B1 was tested, and the binding [2] was “no binding”, the binding [3] was “no binding” and the binding [4] was “no binding”.

B2: At5G63710 ectodomain (domain or fragment, UniProt Q8W4S5 51-224)
chain: DIEGGALLQLRDSLNDSSNRLKWTRDFVSPCYSWSYVTCRGQSVVALNLASSGFTGTLSPAITKLKFLVTLELQNNSLSGALPDSLGNMVNLQTLNLSVNSFSGSIPASWSQLSNLKHLDLSSNNLTGSIPTQFFSIPTFDFSGTQLICGKSLNQPCSSSSRLPVTSSKKKLRD
For B2, the binding [5] was “no binding”, the binding [6] was “no binding” and the binding [7] was “no binding”.

For RRVRRGSDPIHN [CLE45 peptide], the binding [8] was “no binding”.

B3: CLE-… RECEPTOR KINASE (CLERK) ectodomain (domain or fragment, UniProt Q0WVM4 28-236)
chain: T1 sequence
In the case of B3, the binding [9] is reported as “no binding”, the binding [10] is reported as “no binding” and the binding [11] is reported as “no binding”.
